{"source": "patent US20120053155A1", "about": "“SYSTEM AND METHOD FOR REVERTING ANTIBIOTIC TOLERANCE OF BACTERIAL PERSISTER CELLS” (Syracuse University, priority 2010, published 2012)", "system": "P. aeruginosa PAO1", "assay": "Effect on persister formation in subcultures (CFU after Cip treatment)", "format": "cell-based, Pseudomonas aeruginosa", "conditions": "sugars at mM level (10 mM); 5 h incubation; 200 μg/mL Cip", "protocol": "A P. aerugionsa PAO1 overnight culture was sub-cultured into 6 tubes with 5 mL fresh LB medium in each with the optical density at 600 nm (OD600) adjusted to 0.05. Each tube contained different concentrations of BF8 (0, 5, 10, 30, 50 and 100 μg/mL) diluted from a 60 mg/mL stock solution. The amount of ethanol was adjusted to be the same for all samples to eliminate solvent effects. After 5 h of incubation, 2 mL sample from each tube was washed and plated on LB agar plates for counting colony forming units (“CFU”); while 3 mL of sample was added with 200 μg/mL Cip and incubated for 3.5 h to count the numbers of cells that remained as persisters.\nTo compare with the effects of sugars known to promote antibiotic uptake by persisters, the above experiment was repeated using 10 mM glucose and mannitol instead of BF8.", "note": "Some entries share one result that the patent states for a list of compounds.", "data": [{"molecule": "OC[C@@H](O)[C@@H](O)[C@H](O)[C@H](O)CO", "note": "[mannitol, reference compound]", "values": [{"measurement": "persisters that retained the antibiotic tolerance", "value": "more than 50%"}]}]}
